Article PMC8384837
Positions count from the first letter of the chain named. The list shows a part of the results. For some assays here: At the low end of the ranking the order means little. For some assays here: Construct or isoform of the protein are uncertain.

Legend:
Settings in all cases: yeast three-hybrid, YBZ-1, SC-Leu-His + 0.5 mM 3-AT, 4 days
[1] = biological target: T1, PUM1 PUF domain R1-QFR R2-VFQ R7-NPG S863Q + R864F + Q867R + N899V + Y900F + S1079N + N1080P + E1083G (UniProt Q14671)
T1 sequence: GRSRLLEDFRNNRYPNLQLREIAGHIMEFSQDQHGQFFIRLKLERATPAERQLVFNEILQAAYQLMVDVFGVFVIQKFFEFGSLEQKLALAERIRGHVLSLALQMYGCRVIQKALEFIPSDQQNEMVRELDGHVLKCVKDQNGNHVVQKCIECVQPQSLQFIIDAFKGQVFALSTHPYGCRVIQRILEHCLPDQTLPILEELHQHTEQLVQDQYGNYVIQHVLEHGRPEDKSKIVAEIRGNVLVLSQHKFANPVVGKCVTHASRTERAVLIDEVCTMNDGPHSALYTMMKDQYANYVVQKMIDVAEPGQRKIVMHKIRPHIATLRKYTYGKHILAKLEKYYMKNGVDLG

[2] = biological target: T2, PUM1 PUF domain R2-VFQ R3-THE R4-TFR N899V + Y900F + C935T + R936H + Q939E + N971T + H972F + Q975R (UniProt Q14671)
T2 sequence: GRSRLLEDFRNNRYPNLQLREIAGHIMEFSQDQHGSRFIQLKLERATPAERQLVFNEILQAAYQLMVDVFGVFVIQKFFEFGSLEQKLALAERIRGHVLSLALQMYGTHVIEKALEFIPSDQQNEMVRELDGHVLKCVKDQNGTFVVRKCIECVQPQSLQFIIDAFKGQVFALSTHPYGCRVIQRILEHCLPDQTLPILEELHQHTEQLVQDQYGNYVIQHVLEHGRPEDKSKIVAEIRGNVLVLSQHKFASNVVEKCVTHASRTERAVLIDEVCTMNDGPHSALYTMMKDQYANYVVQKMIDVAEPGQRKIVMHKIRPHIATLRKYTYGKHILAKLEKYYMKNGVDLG

[3] = biological target: T3, PUM1 PUF domain R5-PHQ R6-SWD C1007P + R1008H + N1043S + Y1044W + Q1047D (UniProt Q14671)
T3 sequence: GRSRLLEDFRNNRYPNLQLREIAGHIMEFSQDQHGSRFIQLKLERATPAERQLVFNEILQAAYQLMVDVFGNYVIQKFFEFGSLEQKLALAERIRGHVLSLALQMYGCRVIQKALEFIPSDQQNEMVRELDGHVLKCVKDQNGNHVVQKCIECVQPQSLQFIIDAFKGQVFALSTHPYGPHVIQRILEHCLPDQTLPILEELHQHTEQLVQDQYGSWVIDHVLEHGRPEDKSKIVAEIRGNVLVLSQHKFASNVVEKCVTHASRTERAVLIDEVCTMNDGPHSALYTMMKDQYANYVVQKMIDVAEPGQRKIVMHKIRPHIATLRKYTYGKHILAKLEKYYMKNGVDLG

[4] = biological target: T4, PUM1 PUF domain R6-SWD R7-NPG N1043S + Y1044W + Q1047D + S1079N + N1080P + E1083G (Homo sapiens) (UniProt Q14671)
T4 sequence: T3 sequence with P180C, H181R, S252N, N253P, E256G

[5] = biological target: T5, PUM1 PUF domain R3-THE R4-TFR C935T + R936H + Q939E + N971T + H972F + Q975R (UniProt Q14671)
T5 sequence: T2 sequence with V72N, F73Y

Sequence | binding signal (log2 enrichment (interaction score)) [1] | binding signal (log2 enrichment (interaction score)) [2] | binding signal (log2 enrichment (interaction score)) [3] | binding signal (log2 enrichment (interaction score)) [4] | binding signal (log2 enrichment (interaction score)) [5]
GGCUAGAACUAGUGGAUCCCCCGGCGCCCGGCGGCUCGAGCCCGGGUAAGGGGAAAUGGUCUGCAUGCCGCCGGGCGCCAUGCCUGCAGGUCGACUCUAGAAAACAUG | -5.13 | -4.79 | < -7.18 | -0.99 | 
GGCUAGAACUAGUGGAUCCCCCGGCGCCCGGCGGCUCGAGCCCGGGUAAGAUUACAUAGUCUGCAUGCCGCCGGGCGCCAUGCCUGCAGGUCGACUCUAGAAAACAUG | -2.98 |  |  |  | -6.38
GGCUAGAACUAGUGGAUCCCCCGGCGCCCGGCGGCUCGAGCCCGGGUAAGUGAACAACGUCUGCAUGCCGCCGGGCGCCAUGCCUGCAGGUCGACUCUAGAAAACAUG | -5.83 |  |  |  | < -6.89
GGCUAGAACUAGUGGAUCCCCCGGCGCCCGGCGGCUCGAGCCCGGGUAAGUUACCAUAGUCUGCAUGCCGCCGGGCGCCAUGCCUGCAGGUCGACUCUAGAAAACAUG | -5.78 |  |  |  | -5.97
GGCUAGAACUAGUGGAUCCCCCGGCGCCCGGCGGCUCGAGCCCGGGUAAGUGAUAGAAGUCUGCAUGCCGCCGGGCGCCAUGCCUGCAGGUCGACUCUAGAAAACAUG | -6.73 | -5.48 | -7.72 | -0.59 | 
